Experimental data from article doi:10.1101/2022.04.21.489075.
No constants are given. Whether binding was seen depends on the method and setting. Binding seen in cells or lysates may run through a third protein. Some binding calls cover weakened binding; strength is not graded here.

Chains of the proteins cited; added tags and fusions are not shown. Residues count along the entry.
UniProt P43220, residues 24-463: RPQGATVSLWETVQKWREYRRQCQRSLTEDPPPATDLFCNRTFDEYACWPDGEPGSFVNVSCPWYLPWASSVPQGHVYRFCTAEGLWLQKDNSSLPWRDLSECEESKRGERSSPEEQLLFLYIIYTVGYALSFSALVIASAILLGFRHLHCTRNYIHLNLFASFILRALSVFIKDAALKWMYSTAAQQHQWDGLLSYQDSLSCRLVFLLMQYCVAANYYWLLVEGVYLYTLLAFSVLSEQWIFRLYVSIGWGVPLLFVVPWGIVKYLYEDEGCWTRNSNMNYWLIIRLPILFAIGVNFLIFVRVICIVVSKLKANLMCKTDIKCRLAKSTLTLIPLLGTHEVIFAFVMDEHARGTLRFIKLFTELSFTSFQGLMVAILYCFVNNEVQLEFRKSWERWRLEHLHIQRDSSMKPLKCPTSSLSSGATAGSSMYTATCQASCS
UniProt P46934: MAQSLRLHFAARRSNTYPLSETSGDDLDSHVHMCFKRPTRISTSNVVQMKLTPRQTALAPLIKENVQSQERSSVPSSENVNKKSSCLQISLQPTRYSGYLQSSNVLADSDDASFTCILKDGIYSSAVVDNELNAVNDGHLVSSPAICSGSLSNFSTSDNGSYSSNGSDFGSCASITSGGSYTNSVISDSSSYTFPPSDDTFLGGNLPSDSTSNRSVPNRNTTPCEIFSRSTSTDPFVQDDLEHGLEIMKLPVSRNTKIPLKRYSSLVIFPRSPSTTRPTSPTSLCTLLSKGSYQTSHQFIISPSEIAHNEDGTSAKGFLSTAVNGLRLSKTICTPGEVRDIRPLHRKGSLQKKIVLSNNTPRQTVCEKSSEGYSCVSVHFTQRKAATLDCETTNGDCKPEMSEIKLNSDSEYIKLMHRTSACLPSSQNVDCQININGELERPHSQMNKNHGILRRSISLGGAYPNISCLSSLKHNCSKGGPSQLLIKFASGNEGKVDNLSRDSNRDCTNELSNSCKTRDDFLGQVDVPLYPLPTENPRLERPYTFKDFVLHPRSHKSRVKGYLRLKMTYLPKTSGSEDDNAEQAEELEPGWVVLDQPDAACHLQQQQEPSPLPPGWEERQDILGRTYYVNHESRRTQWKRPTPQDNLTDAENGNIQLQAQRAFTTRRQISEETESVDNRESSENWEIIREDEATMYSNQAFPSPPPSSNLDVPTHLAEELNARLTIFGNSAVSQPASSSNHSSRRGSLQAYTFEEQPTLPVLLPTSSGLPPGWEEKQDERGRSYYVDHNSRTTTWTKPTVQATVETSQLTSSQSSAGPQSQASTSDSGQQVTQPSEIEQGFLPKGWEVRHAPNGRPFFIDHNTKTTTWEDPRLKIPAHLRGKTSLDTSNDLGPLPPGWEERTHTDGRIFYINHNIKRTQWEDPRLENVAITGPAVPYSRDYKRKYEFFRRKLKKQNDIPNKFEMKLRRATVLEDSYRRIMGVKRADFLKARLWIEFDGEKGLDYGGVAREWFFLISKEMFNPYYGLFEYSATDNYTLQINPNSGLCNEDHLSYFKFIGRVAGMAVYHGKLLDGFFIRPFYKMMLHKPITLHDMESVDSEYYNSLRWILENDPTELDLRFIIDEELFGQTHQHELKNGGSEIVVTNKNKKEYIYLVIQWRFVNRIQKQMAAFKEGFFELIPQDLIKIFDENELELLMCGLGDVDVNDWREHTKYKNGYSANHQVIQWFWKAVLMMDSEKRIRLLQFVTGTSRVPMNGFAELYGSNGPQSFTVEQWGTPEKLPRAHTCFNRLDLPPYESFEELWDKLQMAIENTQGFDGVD

Molecular target: SNAP/FLAG-tagged human GLP-1R (human) (UniProt P43220)
Test: co-IP

In the case of “HA-tagged NEDD4 (from UniProt P46934 1-1319) (enzyme)”, the binding is reported as “binds”.
